The data set addresses T1, CyuR (YbaO, DecR) (UniProt P0ACJ5).
T1 sequence (looked up, limits assumed): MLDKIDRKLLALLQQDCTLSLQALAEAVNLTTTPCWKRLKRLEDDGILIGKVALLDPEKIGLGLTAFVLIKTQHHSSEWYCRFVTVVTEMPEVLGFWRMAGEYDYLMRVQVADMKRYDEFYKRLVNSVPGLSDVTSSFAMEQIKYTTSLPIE
The experiment in a line: fluorescence polarization. The note with it: no Cys; 20 mM Tris-HCl pH 7.5, 0.1 M NaCl, 0.5 mM EDTA, 10 mM MgSO4, 2 mM DTT, 5 ug/mL herring sperm DNA, 10 nM DNA, 1 h at 30 C, +/- 15 mM L-Cys; recombinant protein; protein details: N-terminal 6xHis. (In general: Fluorescence polarisation rises when a labelled molecule tumbles more slowly, as on binding a larger partner.)

Construct, isoform or probe ends are uncertain for at least one entry. Tags and fusion partners may be left off the protein sequences shown.

Turning to “AGGAAAATTGTTGCCATTTAGCCTTTAAAATGGA (double strand) [cyuR upstream CyuR site, C. braakii ortholog]”, the binding result is on record as “binds”.

The record behind these values is publication PMC11408624.
